Experimental data reported in patent publication US20060128681A1, “Novel rho inhibitors” (priority 2002, published 2006).

Protein sequences, listed by entry. Tags and fused reporters are not part of them.
UniProt P0AG30, whole entry: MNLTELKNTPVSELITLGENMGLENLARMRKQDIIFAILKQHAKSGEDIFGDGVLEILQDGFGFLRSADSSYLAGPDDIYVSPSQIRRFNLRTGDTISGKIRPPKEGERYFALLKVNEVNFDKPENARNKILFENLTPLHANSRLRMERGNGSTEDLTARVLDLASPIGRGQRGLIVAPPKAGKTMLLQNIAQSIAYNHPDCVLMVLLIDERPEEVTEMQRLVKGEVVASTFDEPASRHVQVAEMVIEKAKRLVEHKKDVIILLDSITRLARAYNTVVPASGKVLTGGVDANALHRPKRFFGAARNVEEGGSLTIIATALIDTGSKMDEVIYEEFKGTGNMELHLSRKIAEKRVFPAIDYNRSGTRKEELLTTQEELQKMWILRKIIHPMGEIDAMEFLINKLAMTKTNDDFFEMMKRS

Biological target: rho transcription termination factor (Escherichia coli, UniProt P0AG30)
Assay: Rho poly(C)-dependent ATPase assay, inhibition by metal chelates and bicyclomycin
Assay type: biochemical, E. coli
Conditions: tested form: Cd (CdCl2, 1:1)

## O[C@H](CS)[C@H](O)CS (relative stereo)
(DL)DTT 0.1-0.3 mM alone or equimolar with metal chloride, in presence of MgCl2
  effect on rho poly(C)-dependent ATP hydrolysis: inhibited
read-out: I50, rho poly(C)-dependent ATPase activity, metal chloride + equimolar (DL)DTT (1:1), 1 mM MgCl2, FIG. 1
  IC50: 60 µM

Structures were worked out from names or drawings and are uncertain.
